In the assay the test system is CD2F1 mice, L1210 leukemia ip, survival T/C. The experiment in a line: NCI In Vivo Anticancer Drug Screen. Data for tumor model L1210 Leukemia (intraperitoneal) in CD2F1 (CDF1) mice. As to conditions: higher T/C = longer survival. The method in brief: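 Antitumor effect is scored in animals hosting a serially transplanted tumor. Values compare compound-dosed animals against vehicle-only controls as a simple quotient.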

Where [1] appears, read: T/C endpoint: mean survival time, dose: 200.0 mg/kg/injection, schedule: Q01DX009 (ip), vehicle: water.
Where [2] appears, read: T/C endpoint: mean survival time, dose: 80.0 mg/kg/injection, schedule: Q01DX001 (ip), vehicle: saline.
[3] abbreviates: T/C endpoint: mean survival time, dose: 400.0 mg/kg/injection, schedule: Q01DX009 (ip), vehicle: saline with Tween-80.
The mark [4] stands for this setting: T/C endpoint: mean survival time, dose: 400.0 mg/kg/injection, schedule: Q04DX003 (ip), vehicle: saline with Tween-80.
Setting [5] is: T/C endpoint: mean survival time, dose: 100.0 mg/kg/injection, schedule: Q01DX001 (ip), vehicle: saline.
The mark [6] stands for this setting: T/C endpoint: mean survival time, dose: 200.0 mg/kg/injection, schedule: Q01DX001 (ip), vehicle: saline.
[7] abbreviates: T/C endpoint: mean survival time, dose: 400.0 mg/kg/injection, schedule: Q01DX001 (ip), vehicle: saline.

The list does not hold the whole screen: it gathers tests that were run many times, whatever their T/C, doses with no T/C, and many T/C values between a quarter and a half above the control. Other doses and runs of a compound stand elsewhere. T/C: endpoint of the treated group in % of that of the vehicle group. Some entries give survivors of the animals treated and no T/C: the source files T/C as zero there, which appears to mark a toxic dose or a test without result, not a measured value. Some doses without a T/C left all or most animals alive at the check, yet need not have been tolerated: survival well below the control is almost never listed, so the zero probably covers shortened survival too. Survivors were counted at the toxicity check, usually on the fifth day, unless a day is given; later deaths do not show. Schedules are NCI's codes, taken here to give the interval after Q, in days (D) or hours (H), and the number of doses after X. Some entries were tested several times; the values are given in rising order. For survival time, the PubChem record calls one and a half times the control and up active, and a quarter to a half above the control has no call in these data; cut-offs in other NCI protocols can differ. Some T/C values carry the count of animals alive at the toxicity check (mostly the fifth day); without a count, all were alive then.

Consider `CCSCCNC1=C(C)C(=O)C2=C(C1=O)[C@H](COC(N)=O)[C@]1(OC)[C@H]3[C@@H](CN21)N3C` (stereo partly specified), for which the T/C by setting is: (T/C endpoint: mean survival time, dose: 24.0 mg/kg/injection, schedule: Q01DX001 (ip), vehicle: distilled water + Tween-80) 143 % of control; (T/C endpoint: mean survival time, dose: 48.0 mg/kg/injection, schedule: Q01DX001 (ip), vehicle: distilled water + Tween-80) 145 % of control [5 of 6 alive].
`CC1=C(/C=C/C(C)=C/C=C/C(C)=C/C(=O)O)C(C)(C)CCC1`: the survivor count (T/C endpoint: mean survival time, dose: 256.0 mg/kg/injection, schedule: Q01DX009 (ip), vehicle: saline with Tween-80) is reported as 6 of 6.
On to `C/C=C(\Cl)C1=CC(=O)C23CC2C2(C)COC1(O)C3(O)O2` (stereo unspecified), for which, for the setting “T/C endpoint: mean survival time, dose: 12.0 mg/kg/injection, schedule: Q01DX009 (ip), vehicle: saline with Tween-80”, the survivor count was 0 of 6.
Take `Cc1sc(Cc2ccccc2)nc1-c1ccc(N=Cc2ccc(N(CCOS(C)(=O)=O)CCOS(C)(=O)=O)cc2)cc1`: the survivor count (T/C endpoint: mean survival time, dose: 100.0 mg/kg/injection, schedule: Q01DX009 (ip), vehicle: saline with Tween-80) is 5 of 6.
For `O=S(=O)(O)C1CCC[N-]C1.O=S(=O)(O)C1CCC[N-]C1.[Cl][Pt+2]([Cl])([Cl])[Cl]` (stereo unspecified), under setting [1], the survivor count is on record as 0 of 6.
Consider `CC(=O)OC1C(CO)OC(n2ccc3c(N)ncnc32)C1O` (stereo unspecified), for which, under setting [2], the survivor count is listed as 1 of 6.
`O=C(N/N=C/c1ccc2c(c1)CCC2)c1cccc([N+](=O)[O-])c1`: the survivor count (T/C endpoint: mean survival time, dose: 100.0 mg/kg/injection, schedule: Q01DX001 (ip), vehicle: saline with Tween-80) is recorded as 6 of 6.
In the case of `CCN1/C(=C/C=C/c2oc3ccc4ccccc4c3[n+]2CC)Oc2ccc3ccccc3c21`, the survivor count is, setting by setting: (T/C endpoint: mean survival time, dose: 75.0 mg/kg/injection, schedule: Q01DX001 (ip), vehicle: other) 4 of 6; (T/C endpoint: mean survival time, dose: 150.0 mg/kg/injection, schedule: Q01DX001 (ip), vehicle: other) 3 of 6; (T/C endpoint: mean survival time, dose: 300.0 mg/kg/injection, schedule: Q01DX001 (ip), vehicle: other) 2 of 6.
With `[I][Pt+2][I].[NH-]c1ccc(F)cc1.[NH-]c1ccc(F)cc1`, the survivor count (T/C endpoint: mean survival time, dose: 200.0 mg/kg/injection, schedule: Q04DX003 (ip), vehicle: distilled water + Tween-80) is given as 2 of 6.
For `C[CH2][Sn]1([CH2]C)[O]CC2OC(n3cc(C)c(=O)[nH]c3=O)CC2[O]1` (stereo unspecified), the survivor count (T/C endpoint: mean survival time, dose: 12.5 mg/kg/injection, schedule: Q01DX005 (ip), vehicle: other) was 1 of 6 and 3 of 6; the survivor count (T/C endpoint: mean survival time, dose: 25.0 mg/kg/injection, schedule: Q01DX005 (ip), vehicle: other) is recorded as 0 of 6; the survivor count (T/C endpoint: mean survival time, dose: 50.0 mg/kg/injection, schedule: Q01DX005 (ip), vehicle: other) was 0 of 6; the survivor count (T/C endpoint: mean survival time, dose: 100.0 mg/kg/injection, schedule: Q01DX005 (ip), vehicle: other) is 0 of 6; the survivor count (T/C endpoint: mean survival time, dose: 200.0 mg/kg/injection, schedule: Q01DX005 (ip), vehicle: other) is reported as 0 of 6.
For `c1ccc(C2OCC3(CO2)COC(c2ccccc2)OC3)cc1` (stereo unspecified), under setting [3], the survivor count was 6 of 6.
For the compound `C=CC1(C)CC(=O)C2(O)C(C)(O1)C(OC(C)=O)C(O)C1C(C)(C)CCC(O)C12C` (stereo unspecified), the survivor count was 3 of 6 (T/C endpoint: median survival time, dose: 32.0 mg/kg/injection, schedule: Q01DX005 (ip), vehicle: other) and 0 of 6 (T/C endpoint: median survival time, dose: 64.0 mg/kg/injection, schedule: Q01DX005 (ip), vehicle: other).
`COc1cc2cccc(N)c2cc1OC`: the survivor count (T/C endpoint: mean survival time, dose: 100.0 mg/kg/injection, schedule: Q01DX009 (ip), vehicle: water) was 0 of 6 and the survivor count under setting [1] is on record as 1 of 6.
For `CCC[CH2][Sn](=[S])[CH2]CCC`, the T/C (T/C endpoint: mean survival time, dose: 3.13 mg/kg/injection, schedule: Q04DX003 (ip), vehicle: other) was 135 % of control. Moreover, the survivor count runs as follows: (T/C endpoint: mean survival time, dose: 100.0 mg/kg/injection, schedule: Q04DX003 (ip), vehicle: other) 6 of 6; (T/C endpoint: mean survival time, dose: 200.0 mg/kg/injection, schedule: Q04DX003 (ip), vehicle: other) 6 of 6; (T/C endpoint: mean survival time, dose: 400.0 mg/kg/injection, schedule: Q04DX003 (ip), vehicle: other) 6 of 6.
For the compound `O=[n+]1ccn([O-])c2ccccc21`, the survivor count (T/C endpoint: mean survival time, dose: 400.0 mg/kg/injection, schedule: Q04DX002 (ip), vehicle: saline with Tween-80) is on record as 1 of 3.
With `COc1cccc2c1C(=O)c1c(O)c3c(c(O)c1C2=O)C[C@@](O)(C(=O)CO)C[C@@H]3OC1CC(N)C(OC)C(C)O1` (stereo partly specified), the T/C was 136 % of control (T/C endpoint: mean survival time, dose: 0.32 mg/kg/injection, schedule: Q01DX009 (ip), vehicle: saline); 135 % of control (T/C endpoint: mean survival time, dose: 0.39 mg/kg/injection, schedule: Q01DX009 (ip), vehicle: saline); 138 % of control (T/C endpoint: mean survival time, dose: 1.3 mg/kg/injection, schedule: Q01DX001 (ip), vehicle: saline); 134 % of control (T/C endpoint: mean survival time, dose: 1.5 mg/kg/injection, schedule: Q01DX009 (ip), vehicle: saline); 148 % of control (T/C endpoint: mean survival time, dose: 2.16 mg/kg/injection, schedule: Q01DX001 (ip), vehicle: saline). The survivor count (T/C endpoint: mean survival time, dose: 2.5 mg/kg/injection, schedule: Q01DX009 (ip), vehicle: saline) is on record as 6 of 6.
For `CCCCCCCCCCCCS(=O)(=O)O`, the survivor count under setting [4] is 0 of 7.
On to `Nc1ccc2ccc(N)cc2c1`, for which, for the setting “T/C endpoint: median survival time, dose: 400.0 mg/kg/injection, schedule: Q01DX009 (ip), vehicle: saline with Tween-80”, the survivor count is reported as 1 of 6.
Consider `ClCC(CCl)N1CCCCC1`, for which the T/C (T/C endpoint: mean survival time, dose: 25.0 mg/kg/injection, schedule: Q01DX009 (ip), vehicle: saline sonified) is 128 % of control. For the same compound, the survivor count is on record as 0 of 6 under setting [5], 0 of 6 under setting [6] and 0 of 6 under setting [7].
For `N#CSCCOCCSC#N`, the survivor count (T/C endpoint: mean survival time, dose: 10.0 mg/kg/injection, schedule: Q04DX003 (ip), vehicle: saline with Tween-80) is 0 of 6.
For `C=Cc1cnc([N+](=O)[O-])n1C`, where the note is “T/C endpoint: mean survival time, dose: 400.0 mg/kg/injection, schedule: Q01DX009 (ip), vehicle: Klucel (hydroxypropylcellulose) (HPC)”, the survivor count is listed as 0 of 6.
For the compound `Cc1cc(N=Nc2ccc(S(=O)(=O)[O-])cc2)cc(C(=O)[O-])c1[O-].NC1CCCCC1N.[Na+].[Pt+4]`, the T/C (T/C endpoint: median survival time, dose: 1.56 mg/kg/injection, schedule: Q04DX003 (ip), vehicle: saline with Tween-80) was 142 % of control and the T/C (T/C endpoint: median survival time, dose: 25.0 mg/kg/injection, schedule: Q04DX003 (ip), vehicle: saline with Tween-80) is 126 % of control. Moreover, the survivor count runs as follows: (T/C endpoint: median survival time, dose: 50.0 mg/kg/injection, schedule: Q04DX003 (ip), vehicle: saline with Tween-80) 6 of 6; (T/C endpoint: median survival time, dose: 100.0 mg/kg/injection, schedule: Q04DX003 (ip), vehicle: saline with Tween-80) 0 of 6; (T/C endpoint: median survival time, dose: 200.0 mg/kg/injection, schedule: Q04DX003 (ip), vehicle: saline with Tween-80) 0 of 6.
Turning to `CC(=O)Nc1cccc(C[P+](c2ccccc2)(c2ccccc2)c2ccccc2)c1`, the survivor count under setting [4] was 0 of 3.
As to `CC(=O)Nc1ccc(S(=O)(=O)OCCC#N)cc1`, the survivor count under setting [3] is listed as 3 of 6.
Consider `OC(c1ccccc1)C(O)c1ccccc1` (stereo unspecified), for which the survivor count runs as follows: (T/C endpoint: mean survival time, dose: 75.0 mg/kg/injection, schedule: Q01DX001 (ip), vehicle: saline) 2 of 6; (T/C endpoint: mean survival time, dose: 150.0 mg/kg/injection, schedule: Q01DX001 (ip), vehicle: saline) 0 of 6; (T/C endpoint: mean survival time, dose: 300.0 mg/kg/injection, schedule: Q01DX001 (ip), vehicle: saline) 0 of 6.
As for `O=NC1C2CCC(C2)C1Cl` (stereo unspecified), the survivor count by setting is: (T/C endpoint: mean survival time, dose: 40.0 mg/kg/injection, schedule: Q01DX001 (ip), vehicle: saline) 3 of 6; under setting [2], 0 of 6; under setting [5], 0 of 6; under setting [6], 0 of 6; under setting [7], 0 of 6.

Source of the values: PubChem BioAssay AID256 (DTP/NCI, 2004).
